From PMC11399591

Chains of the proteins cited; added tags and fusions are not shown. Residues count along the entry.
UniProt Q96J86, residues 30-154: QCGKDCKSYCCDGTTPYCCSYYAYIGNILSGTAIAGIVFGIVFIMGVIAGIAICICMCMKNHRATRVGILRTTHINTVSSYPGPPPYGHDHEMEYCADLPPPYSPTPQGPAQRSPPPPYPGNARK
UniProt Q8IZ07: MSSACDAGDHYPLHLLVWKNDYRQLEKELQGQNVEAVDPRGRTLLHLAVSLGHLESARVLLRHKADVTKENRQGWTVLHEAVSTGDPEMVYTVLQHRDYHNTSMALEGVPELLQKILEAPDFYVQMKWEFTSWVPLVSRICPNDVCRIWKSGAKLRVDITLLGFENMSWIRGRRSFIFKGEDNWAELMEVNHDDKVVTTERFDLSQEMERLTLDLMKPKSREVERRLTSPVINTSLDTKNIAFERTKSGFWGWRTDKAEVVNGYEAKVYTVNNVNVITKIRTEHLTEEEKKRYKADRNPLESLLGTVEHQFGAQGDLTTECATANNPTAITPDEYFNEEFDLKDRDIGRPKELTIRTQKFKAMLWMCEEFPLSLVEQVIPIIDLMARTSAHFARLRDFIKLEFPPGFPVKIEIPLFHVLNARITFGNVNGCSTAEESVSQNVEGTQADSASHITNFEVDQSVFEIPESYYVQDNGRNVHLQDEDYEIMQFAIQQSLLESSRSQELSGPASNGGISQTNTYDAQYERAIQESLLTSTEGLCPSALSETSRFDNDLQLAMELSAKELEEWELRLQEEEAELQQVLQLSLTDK

Biological target: GFP-CYYR1 (UniProt Q96J86)
Experiment: affinity purification with mass spectrometry; HEK293 transfected with GFP or GFP-CYYR1; lysis in IP150 buffer (20 mM Tris-HCl pH 7.5, 150 mM NaCl, 5 mM EDTA, 1% NP-40, 10% glycerol); 3.5 mg protein on GFP-Trap overnight at 4 °C; quantitative label-free mass spectrometry, n = 5

binding: binds
Substance: endogenous ANKRD13A (from UniProt Q8IZ07 1-590)

Results are given in words; binding and its absence hold for the method and conditions named. Binding seen in cells or lysates may run through a third protein. These calls come from enrichment with a bait or labelling near it, and not all partners need be listed.
